From patent US11926678B2 (Immunwork Inc., priority 2020, dated 2024)

Assay: peptide made by a vendor (Fmoc solid-phase peptide synthesis)
Details: whole synthesis

maleimido-ethyl-GGSGGSKGSKGSKGSKGSK
purity (crude or final not stated): 95.67%
